PubChem BioAssay AID1259308 | NCATS – 2017

Purpose: 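Genes whose loss raises luciferase production in HEK293 cells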 (primary screen)
Cells: human HEK293 embryonic kidney cells stably expressing firefly luciferase (HEK-CMV-Luc2-Hygro)
Knock-down reagent: single siRNA against human genes, 0.8 pmol siRNA per well
Duration: 72 h
Detection: 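Reporter luminescence and viable-cell signal on separate replicate plates, given as percent of non-targeting control and median/MAD z-scores, plus per-cell luciferase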
Scale: total luciferase, z-score: higher = more reporter protein produced
Active means: 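An siRNA counts as active if its total luciferase robust z-score exceeds 3; genes with two or more such siRNAs out of three were retested with fresh siRNAs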
Meaning of the calls: active = raised luciferase; inactive = no rise
Here is a random part of about 59,000 reagents. About 1,510 of all reagents (2.6%) count as active. 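Calls use total luciferase alone and ignore viability, so some active siRNAs may act by altering cell number.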 Unmarked entries are inactive. The numbers tell different reagents against one gene apart. Not all columns of the deposit are shown.

CNTROB #1 — total luciferase, z-score: -0.962
CNTROB #2 — total luciferase, z-score: -0.237
CNTROB #3 — total luciferase, z-score: 0.321
CCL7 #1 — total luciferase, z-score: 0.347
CCL7 #2 — total luciferase, z-score: 0.474
CCL7 #3 — total luciferase, z-score: -0.425
MYCN #1 — total luciferase, z-score: -0.16
MYCN #2 — total luciferase, z-score: 0.0565
MYCN #3 — total luciferase, z-score: 0.908
LMF1 #1 — total luciferase, z-score: 0.518
LMF1 #2 — total luciferase, z-score: -0.53
LMF1 #3 — total luciferase, z-score: -2.77
SPSB1 #1 — total luciferase, z-score: 4.74 (active)
SPSB1 #2 — total luciferase, z-score: -1.37
SPSB1 #3 — total luciferase, z-score: 0.616
LINC01100 #1 — total luciferase, z-score: -1.77
LINC01100 #2 — total luciferase, z-score: 0.445
LINC01100 #3 — total luciferase, z-score: 0.255
PDE4B #1 — total luciferase, z-score: 0.502
PDE4B #2 — total luciferase, z-score: 1.68
PDE4B #3 — total luciferase, z-score: -0.647

Part of the list above in another layout.
gene	reagent	total luciferase, z-score
MYCN	3	0.908
LMF1	1	0.518
